Data: PMC4059888
No constants are given. Whether binding was seen depends on the method and setting. Some results given as binding are weak or reduced against the parent protein; the word gives no strength.

How the values were obtained:
[1] = molecular target: T1, Msl1 (mouse (endogenous in mESCs)) (UniProt Q6PDM1); assay: SEC; Superose 6 (10/300), 25 mM Tris pH 7.9, 1 mM DTT, 5 mM MgCl2, 150 mM KCl, 5% glycerol; 1 mg mESC nuclear extract; fractions analysed by Western blot for Nsl1, Msl1 and Mof
T1 sequence: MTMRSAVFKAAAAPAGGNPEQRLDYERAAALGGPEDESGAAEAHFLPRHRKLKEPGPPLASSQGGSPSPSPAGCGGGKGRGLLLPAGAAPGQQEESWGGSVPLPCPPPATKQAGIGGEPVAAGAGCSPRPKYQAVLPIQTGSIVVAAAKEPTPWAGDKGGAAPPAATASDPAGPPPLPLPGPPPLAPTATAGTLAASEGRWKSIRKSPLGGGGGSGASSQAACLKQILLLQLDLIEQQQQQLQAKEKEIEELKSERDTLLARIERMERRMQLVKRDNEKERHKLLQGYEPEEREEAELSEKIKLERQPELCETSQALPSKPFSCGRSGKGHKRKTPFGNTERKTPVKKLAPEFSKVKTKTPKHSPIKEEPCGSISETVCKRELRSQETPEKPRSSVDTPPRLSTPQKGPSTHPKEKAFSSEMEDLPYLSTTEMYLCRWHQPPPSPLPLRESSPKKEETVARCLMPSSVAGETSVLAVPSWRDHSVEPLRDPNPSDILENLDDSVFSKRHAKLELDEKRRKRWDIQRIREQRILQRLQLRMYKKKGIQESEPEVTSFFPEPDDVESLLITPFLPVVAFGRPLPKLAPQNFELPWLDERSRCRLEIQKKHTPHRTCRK

[2] = molecular target: T2, Nsl1 (mouse (endogenous in mESCs)) (UniProt Q80TG1); assay: as above
T2 sequence: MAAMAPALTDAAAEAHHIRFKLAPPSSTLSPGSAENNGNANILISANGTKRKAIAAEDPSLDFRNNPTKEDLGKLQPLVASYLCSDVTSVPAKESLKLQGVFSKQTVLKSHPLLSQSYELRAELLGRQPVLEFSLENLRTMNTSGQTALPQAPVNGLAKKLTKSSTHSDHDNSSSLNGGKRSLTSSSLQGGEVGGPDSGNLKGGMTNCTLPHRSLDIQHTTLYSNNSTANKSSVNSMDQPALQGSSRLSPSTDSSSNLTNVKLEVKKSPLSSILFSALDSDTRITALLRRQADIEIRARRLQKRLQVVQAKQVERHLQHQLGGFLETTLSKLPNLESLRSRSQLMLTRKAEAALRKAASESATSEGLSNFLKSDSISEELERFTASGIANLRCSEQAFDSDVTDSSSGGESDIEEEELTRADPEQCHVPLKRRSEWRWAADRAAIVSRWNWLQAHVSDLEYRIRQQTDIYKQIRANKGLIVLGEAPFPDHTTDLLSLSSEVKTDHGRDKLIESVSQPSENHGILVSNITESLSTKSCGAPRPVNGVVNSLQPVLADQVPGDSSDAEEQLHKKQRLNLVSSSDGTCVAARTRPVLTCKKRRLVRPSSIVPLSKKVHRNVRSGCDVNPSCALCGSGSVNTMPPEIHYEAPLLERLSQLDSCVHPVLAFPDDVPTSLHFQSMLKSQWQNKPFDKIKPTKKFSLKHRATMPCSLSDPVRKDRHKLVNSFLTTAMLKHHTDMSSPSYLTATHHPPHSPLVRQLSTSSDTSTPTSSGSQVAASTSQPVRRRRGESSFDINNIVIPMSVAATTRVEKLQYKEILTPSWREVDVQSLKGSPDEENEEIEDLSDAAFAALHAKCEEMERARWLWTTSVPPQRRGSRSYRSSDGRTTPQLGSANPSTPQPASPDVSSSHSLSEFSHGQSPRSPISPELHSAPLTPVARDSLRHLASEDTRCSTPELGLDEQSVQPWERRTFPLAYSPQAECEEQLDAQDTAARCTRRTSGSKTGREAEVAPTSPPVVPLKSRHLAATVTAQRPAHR

binding [1]: binds | binding [2]: binds
B1: Mof (male absent on the first) (enzyme, UniProt Q9D1P2 1-458)
chain: MAAQGATAAVAATTSGTVGEGEPGPGENAAVEGPARSPGRVSPPTPARGEPEVTVEIGETYLCRRPDSTWHSAEVIQSRVNDQEGREEFYVHYVGFNRRLDEWVDKNRLALTKTVKDAVQKNSEKYLSELAEQPERKITRNQKRKHDEINHVQKTYAEMDPTTAALEKEHEAITKVKYVDKIHIGNYEIDAWYFSPFPEDYGKQPKLWLCEYCLKYMKFEKSYRFHLGQCQWRQPPGKEIYRKSNISVYEVDGKDHKIYCQNLCLLAKLFLDHKTLYFDVEPFVFYILTEVDRQGAHIVGYFSKEKESPDGNNVACILTLPPYQRRGYGKFLIAFSYELSKLESTVGSPEKPLSDLGKLSYRSYWSWVLLEILRDFRGTLSIKDLSQMTSITQNDIISTLQSLNMVKYWKGQHVICVTPKLVEEHLKSAQYKKPPITVDSVCLKWAPPKHKQVKLSKK
